This is an account of results in patent publication US5612220.

The exact form of at least one protein or probe is not confirmed. For some assays here: Tags and fusion partners may be left off the protein sequences shown.

One data set deals with Oct-2. Nature of the data set: EMSA. The settings on record: protein translated in vitro; label: 32P.
The target in data set [1] is T1, Sprm-1 (Rattus norvegicus) (UniProt P56225).
T1 sequence (limits assumed): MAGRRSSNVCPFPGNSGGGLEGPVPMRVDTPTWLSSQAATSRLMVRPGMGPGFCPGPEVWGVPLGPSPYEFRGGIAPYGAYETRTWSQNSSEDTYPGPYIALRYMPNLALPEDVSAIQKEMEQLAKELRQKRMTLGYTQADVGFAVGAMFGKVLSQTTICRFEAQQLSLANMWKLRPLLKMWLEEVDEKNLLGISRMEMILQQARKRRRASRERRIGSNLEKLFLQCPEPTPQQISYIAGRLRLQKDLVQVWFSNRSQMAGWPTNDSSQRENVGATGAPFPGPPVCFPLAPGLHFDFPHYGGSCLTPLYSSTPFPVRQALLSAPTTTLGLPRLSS
Nature of the data set: SELEX. To be noted: SAAB, four rounds; preferred site, higher affinity than H-O+; purified recombinant protein; protein details: GST fusion, glutathione affinity purified.

On to “TTTGAAAATATGTGTAATATGTAAAACATTTTG (double strand) [I12 Oct site]”, for which the binding result in the data set on Oct-2 is on record as “binds”.
Regarding “GCATATGTTAAT (double strand) [SAAB-selected Sprm-1 preferred site]”, in data set [1], the selection result is given as “selected”.
